Laboratory results reported in PubChem BioAssay AID493073 (Broad Institute, 2011).
Hit rate of the full screen: of about 1,200 compounds, about 810 (68%) were called active. How the calls were made is not given here. So high a share suggests a set chosen from earlier hits. The list shows a part of the results, in another mix than the full data. Entries with a potency or affinity are not part of this list.

Experiment: reducers of TRPM1 reporter luminescence, concentration series – cell-based, SK-MEL-5, cherry-picked, set 3, MITF inhibitor project, dose response (AID 493073)
Details: SK-MEL-5 TRPM1 promoter luciferase, 24 h; at 35 µM (top of the series)

| Compound | activity change, negative = inhibition |
| --- | --- |
| CCOC(=O)c1c(-n2c(C)cc(C=C3C(=O)NC(=S)NC3=O)c2C)sc2c1CCCC2 | inactive: -87.7% |
| NC(Cc1nc2ccccc2[nH]1)c1ccc(Cl)cc1 (stereo not given) | inactive: 129% |
| Cc1cc(C(=O)Nc2ccc3c(c2)OCCO3)nn1C(C)(C)C | inactive: 88.6% |
| NCCc1ccc(OCc2ccccc2)c(OCc2ccccc2)c1 | inactive: -98.5% |
| Cc1ccc(N2C(=O)NC(=O)/C(=C\C=C\c3ccco3)C2=O)cc1 | inactive: -59.3% |
